Laboratory results published in PubChem BioAssay AID540276 (National Center for Advancing Translational Sciences (NCATS), 2011).
The campaign covered roughly 300,000 compounds. About 5,400 (1.8%) were called active. Inconclusive means that the source gave no clear call. Such entries were picked first, then a sample of the others. Calls follow the shape of the full dose curve; tested in HEK293 cells. A potency beside an inconclusive call is a rough fit, not a confirmed value.

test: qHTS for inhibitors of binding or entry into cells for Marburg Virus; conditions: Marburg virus pseudotyped entry inhibition, cell reporter; activity change, negative = inhibition: at 37.8 µM (top of the series) unless noted
% is scaled to controls: 0 for no effect and ±100 for the full control effect; potency is read from the fitted curve at half-maximal effect.

**Q.** Which “activity change, negative = inhibition” value does the source give for CCC1CCCCN1C(=S)NC1CCCCC1 (stereo not drawn) here?
**A.** inactive: 10.5%

**Q.** For O=C(N/N=C/c1ccoc1)c1cccc([N+](=O)[O-])c1, which Potency is on record?
**A.** inconclusive: 35.5 µM [activator, single point]

**Q.** Which Potency does the source give for O=S(=O)(Nc1cccc(S(=O)(=O)N2CCCCCC2)c1)c1ccc(F)cc1F here?
**A.** inconclusive: 8.91 µM [inhibitor, partial curve, poor fit]

**Q.** Which Potency does the source give for CC(C)(Cc1ccc(O)cc1)NC(=O)SCc1ccccc1 here?
**A.** inconclusive: 0.126 µM [inhibitor, full curve, poor fit]

**Q.** With CCc1ccccc1OCC(=O)OCC(=O)c1c(N)n(C)c(=O)n(C)c1=O as the compound, how does the “activity change, negative = inhibition” value read?
**A.** inactive: 5.67% [at 46.1 µM]

**Q.** Which “activity change, negative = inhibition” value does the source give for O=S(=O)(Nc1ccc(-c2ccc3nncn3n2)cc1)c1cc(F)ccc1F here?
**A.** inactive: -5.06% [at 46.1 µM]

**Q.** Which Potency does the source give for CCOC(=O)N1CCC(NC(=O)c2ccc3c(Cl)c4c(nc3c2)CCCC4)CC1 here?
**A.** inconclusive: 29.1 µM [inhibitor, single point]

**Q.** For CCOc1ccc(C(=O)c2cn(Cc3ccc(F)cc3)c3ccc(F)cc3c2=O)cc1, which Potency is on record?
**A.** inconclusive: 11.2 µM [inhibitor, partial curve, poor fit]

**Q.** For CC(C)Cn1c(O)c2ccc(C(=O)N=NC(=O)c3cccnc3)cc2c1O, which Potency is on record?
**A.** inconclusive: 35.5 µM [activator, single point]

**Q.** For O=C(Nc1cccs1)Nc1c(F)c(F)c(F)c(F)c1F, which “activity change, negative = inhibition” value is on record?
**A.** inactive: -23%

**Q.** For COc1ccc(N(C)S(=O)(=O)c2cccc(C(=O)Nc3cccc(C(=O)NC4CC4)c3)c2)cc1, which Potency is on record?
**A.** inconclusive: 25.1 µM [inhibitor, single point]

**Q.** Which “activity change, negative = inhibition” value does the source give for CC(C(=O)NC1C(=O)N2C(C(=O)O)=C(CSc3nnnn3C)CSC12)n1cc(Br)cn1 (stereo not drawn) here?
**A.** inactive: -0.0603% [at 46.1 µM]

**Q.** Which “activity change, negative = inhibition” value does the source give for CCCOc1ccccc1C1Oc2nc(SC)nnc2-c2ccccc2N1C(C)=O (stereo not drawn) here?
**A.** inactive: -15.9% [at 46.1 µM]

**Q.** With Cc1ccc(CC(=O)O/N=C(\N)c2cccc([N+](=O)[O-])c2)cc1 as the compound, how does the “activity change, negative = inhibition” value read?
**A.** inactive: -1.74%

**Q.** With CN1N=C(C(C)(C)C)CC1=O as the compound, how does the Potency read?
**A.** active: 22.4 µM

**Q.** For N[C@@H](COP(=O)(O)O)C(=O)O, which Potency is on record?
**A.** inconclusive: 0.0089 µM [inhibitor, full curve, poor fit]

**Q.** For O=C(c1ccc(S(=O)(=O)Nc2cccc(C(F)(F)F)c2)cc1)N1CCOCC1, which Potency is on record?
**A.** inconclusive: 3.55 µM [inhibitor, single point]

**Q.** With COc1ccccc1N(C)S(=O)(=O)c1ccc(C(=O)Nc2ncc(C)s2)cc1 as the compound, how does the “activity change, negative = inhibition” value read?
**A.** inactive: -27.9%

**Q.** Which Potency does the source give for OCCNCc1cccc(OCc2ccccc2Cl)c1 here?
**A.** inconclusive: 35.5 µM [inhibitor, single point]

**Q.** For Cc1cc2n(n1)C(c1cn(-c3ccccc3)nc1C)Nc1ccccc1-2 (stereo not drawn), which “activity change, negative = inhibition” value is on record?
**A.** inactive: 9.55%

**Q.** Which Potency does the source give for Cc1c(CC(=O)N[C@H](C(=O)O)C(C)C)c(=O)oc2cc3c(cc12)CCC(C)(C)O3 here?
**A.** inconclusive: 7.08 µM [activator, partial curve]

**Q.** With O=C(O)c1ccc2c(=O)n3c(nc2c1)/C(=C/c1ccccc1C(F)(F)F)CCCC3 as the compound, how does the Potency read?
**A.** inconclusive: 5.62 µM [inhibitor, single point]

**Q.** With CC(C)(C)NC(=O)CN(C(=O)C1CSC(=O)C1)c1ccc2c(c1)OCCO2 (stereo not drawn) as the compound, how does the “activity change, negative = inhibition” value read?
**A.** inactive: 0.269%

**Q.** For CNC(=O)CCSSCCC(=O)NC, which “activity change, negative = inhibition” value is on record?
**A.** inactive: 1.73% [at 46.1 µM]

**Q.** For C#CCn1cc(/C=C2\NC(=O)NC2=O)c2ccccc21, which Potency is on record?
**A.** inconclusive: 17.8 µM [inhibitor, single point]

**Q.** For CN(CCC#N)C(=S)NC(=O)c1ccc(S(=O)(=O)N2CCOCC2)cc1, which “activity change, negative = inhibition” value is on record?
**A.** inactive: 26.1% [at 46.1 µM]

**Q.** With O=C(N/C(=C/c1ccc(Br)cc1)C(=O)N1CCOCC1)c1ccco1 as the compound, how does the “activity change, negative = inhibition” value read?
**A.** inactive: -15.2%

**Q.** Which Potency does the source give for CCOc1cc(CNCCSc2nnnn2-c2ccccc2)ccc1OC here?
**A.** inconclusive: 7.08 µM [inhibitor, partial curve, poor fit]

**Q.** For COc1ccc(CNC(=O)C(c2cccs2)N(Cc2ccco2)C(=O)Cc2cccs2)cc1 (stereo not drawn), which Potency is on record?
**A.** inconclusive: 17.8 µM [inhibitor, single point]

**Q.** For Cc1ccc(CCS(=O)(=O)c2ccc(C(C)(C)C)cc2)cn1, which Potency is on record?
**A.** inconclusive: 2 µM [inhibitor, partial curve, poor fit]

**Q.** Which Potency does the source give for Nc1nc(Nc2ccccc2)nc2ccccc12 here?
**A.** inconclusive: 28.2 µM [inhibitor, single point]

**Q.** Which “activity change, negative = inhibition” value does the source give for NC(=S)NN=C1CCCCCCCCCC1 here?
**A.** inactive: -1.96%

**Q.** With O=C(Cc1ccccc1F)Nc1nc(-c2cccnc2)cs1 as the compound, how does the “activity change, negative = inhibition” value read?
**A.** inactive: 3.25%

**Q.** Which Potency does the source give for C=CCn1c(=NC(=O)c2ccco2)sc2cc(C(=O)OC)ccc21 here?
**A.** inconclusive: 29.1 µM [activator, partial curve, poor fit]

**Q.** Which Potency does the source give for CCCCN(CCCC)C(=O)CSc1nnc(-c2cc(OC)c(OC)c(OC)c2)o1 here?
**A.** inconclusive: 13 µM [inhibitor, partial curve]

**Q.** Which Potency does the source give for Cc1cc(C)cc(Nc2cc(C(=O)NCc3ccccc3)c3ccccc3n2)c1 here?
**A.** inconclusive: 14.1 µM [inhibitor, partial curve, poor fit]

**Q.** For O=C(Nc1nnc(COc2ccc(Cl)cc2)s1)C1CCCO1 (stereo not drawn), which Potency is on record?
**A.** inconclusive: 3.55 µM [activator, partial curve, poor fit]

**Q.** With O=c1cc(Cc2ccccc2)[nH]c(=S)[nH]1 as the compound, how does the Potency read?
**A.** inconclusive: 35.5 µM [activator, single point]

**Q.** For CCCC(=O)Nc1ccc(Sc2ccc([N+](=O)[O-])cc2)cc1, which Potency is on record?
**A.** active: 20 µM

**Q.** For O=c1[nH]c(N/N=C/c2ccccc2Br)nnc1-c1ccccc1, which Potency is on record?
**A.** inconclusive: 0.316 µM [inhibitor, partial curve, poor fit]

**Q.** With Cc1ccc2cc(CN(CCN3CCOCC3)C(=O)NCc3ccccc3)c(=O)[nH]c2c1C as the compound, how does the Potency read?
**A.** inconclusive: 6.31 µM [inhibitor, full curve, poor fit]

**Q.** Which “activity change, negative = inhibition” value does the source give for CCOCC(=O)Nc1nnc(C2CCCCC2)s1 here?
**A.** inactive: -25.4% [at 46.1 µM]

**Q.** With O=C(CCCNS(=O)(=O)c1ccc(Cl)c(Cl)c1)NCCc1ccccn1 as the compound, how does the “activity change, negative = inhibition” value read?
**A.** inactive: 7.54%

**Q.** With COc1ccc(NC(=O)CCSc2nc(-c3ccco3)cc(C(F)(F)F)n2)cc1OC as the compound, how does the Potency read?
**A.** inconclusive: 6.31 µM [inhibitor, single point]

**Q.** For O=C(O)c1cccc(NC(=S)N/N=C/c2cccc(O)c2)c1, which Potency is on record?
**A.** inconclusive: 2 µM [inhibitor, partial curve, poor fit]

**Q.** Which “activity change, negative = inhibition” value does the source give for CCn1c(C)nc([N+](=O)[O-])c1C(=O)O here?
**A.** inactive: 11.6% [at 46.1 µM]

**Q.** For Cc1ccc(S(=O)(=O)N2CCN(S(=O)(=O)N3CCCCC3)CC2)cc1C, which Potency is on record?
**A.** inconclusive: 3.98 µM [inhibitor, partial curve, poor fit]

**Q.** Which Potency does the source give for Fc1ccccc1Nc1nc(NCc2ccco2)nc(N2CCOCC2)n1 here?
**A.** inconclusive: 18.3 µM [inhibitor, partial curve]

**Q.** With CCOC(=O)c1c(CSc2ccccc2)oc2cc(Br)c(O)c(CN(C)C)c12 as the compound, how does the Potency read?
**A.** inconclusive: 11.2 µM [inhibitor, partial curve, poor fit]

**Q.** Which “activity change, negative = inhibition” value does the source give for Cc1ccccc1-n1cc[nH]c1=S here?
**A.** inactive: -1.26% [at 46.1 µM]

**Q.** With Cc1ccc(C(=O)Nc2ccc3c(c2)CCC3)cc1S(=O)(=O)N1CCOCC1 as the compound, how does the Potency read?
**A.** inconclusive: 11.2 µM [inhibitor, partial curve, poor fit]

**Q.** Which Potency does the source give for Fc1cccc(Cl)c1CSc1nnc2ccccn12 here?
**A.** inconclusive: 7.08 µM [activator, partial curve]

**Q.** Which Potency does the source give for O=C(COC(=O)c1ccccc1[N+](=O)[O-])c1ccc2c(c1)OCO2 here?
**A.** inconclusive: 0.447 µM [inhibitor, single point]

**Q.** For O=S(=O)(N/N=C1/CC(c2ccccc2)Oc2ccccc21)c1ccc(Br)cc1 (stereo not drawn), which Potency is on record?
**A.** inconclusive: 0.259 µM [inhibitor, full curve, poor fit]

**Q.** For CN(C)C(=O)c1c(NC(=O)c2ccco2)sc2c1CCCCC2, which “activity change, negative = inhibition” value is on record?
**A.** inactive: -5.34%

**Q.** Which “activity change, negative = inhibition” value does the source give for O=C(O)c1ccc2c(=O)[nH]c(CCl)nc2c1 here?
**A.** inactive: 7.64%

**Q.** With CCCCn1nc(NC(=O)c2cccs2)c2cc3cc(OC)ccc3nc21 as the compound, how does the Potency read?
**A.** inconclusive: 8.91 µM [inhibitor, partial curve, poor fit]

**Q.** Which Potency does the source give for CCN(CC)S(=O)(=O)c1ccc(C(=O)NCCSc2c(-c3ccc(OC)cc3)[nH]c3ccccc23)cc1 here?
**A.** inconclusive: 10 µM [inhibitor, partial curve, poor fit]

**Q.** With CC(=O)c1c(C)oc2ccc(N(C(=O)c3ccncc3)S(=O)(=O)c3ccc(C)cc3C)cc12 as the compound, how does the Potency read?
**A.** inconclusive: 1.26 µM [inhibitor, partial curve, poor fit]

**Q.** With COc1ccccc1NC(=O)C1=C(C)Nc2nc(SCc3ccccc3Cl)nn2C1c1ccncc1 (stereo not drawn) as the compound, how does the Potency read?
**A.** inconclusive: 31.6 µM [activator, single point]

**Q.** Which Potency does the source give for Cc1oc(-c2ccccc2Cl)nc1Cn1cccc1C1=NC(c2ccccc2)CO1 (stereo not drawn) here?
**A.** inconclusive: 2.59 µM [inhibitor, full curve, poor fit]

**Q.** For Cn1c(N)c(C(=O)NCc2ccccc2)sc1=S, which Potency is on record?
**A.** inconclusive: 2.59 µM [inhibitor, partial curve, poor fit]

**Q.** With Cc1ccccc1Cn1cc(NC(=O)CSc2nc3c(c(C(F)(F)F)n2)CCc2ccccc2-3)cn1 as the compound, how does the Potency read?
**A.** inconclusive: 13 µM [inhibitor, partial curve]

**Q.** Which Potency does the source give for CC(C)CNS(=O)(=O)c1ccc(NC(=O)Cn2nc(-c3ccc(F)cc3)ccc2=O)cc1 here?
**A.** inconclusive: 6.31 µM [activator, single point]

**Q.** Which Potency does the source give for COc1ccc(CSCC(=O)Nc2ccccc2)cc1[N+](=O)[O-] here?
**A.** inconclusive: 12.6 µM [inhibitor, partial curve, poor fit]

**Q.** For CCN(CC)C(=O)Cn1cc(C(=O)C(=O)N2CCN(c3ccc([N+](=O)[O-])cc3)CC2)c2ccccc21, which Potency is on record?
**A.** inconclusive: 8.91 µM [inhibitor, partial curve, poor fit]

**Q.** With CCOC(=O)N1CCN(CC(O)COCc2ccc(Cl)cc2)CC1 (stereo not drawn) as the compound, how does the Potency read?
**A.** inconclusive: 6.31 µM [inhibitor, single point]

**Q.** Which Potency does the source give for COc1ccc(-c2cc(C(F)(F)F)n3nc(C(=O)N4CCCCC4)cc3n2)cc1OC here?
**A.** inconclusive: 22.4 µM [inhibitor, single point]
